Further values from the same series stand in other lists.
Test: In vivo individual difference analysis: individual plasma concentration versus time in rats (Example 8)
Set-up: species or system SD rats
Settings: intragastric 1 mg/kg, listed as Phosphate of Compound of Formula I
Experimental: Compound of Formula I and salts thereof (sulfate, hydrochloride salt, phosphate, maleate), supplied by Shanghai Jingxin Biopharmaceutical Co., Ltd. • Strain: SD rats; Gender: male; Body weight: about 250 grams; Source: shanghai Jiesijie Experimental Animal Co., Ltd Route: single intragastric administration; Capacity: measured in 10 mL/kg body weight Preparation: weighing appropriate amount of the free base or salt of the compound of Formula I, adding a small amount of 0.5% CMC-Na to grind, adding 0.5% CMC-Na to the volume. The concentration is measured as the base. 20 SD rats were divided into 5 groups with 4 rats in each group, fasted for 12 h and drank freely before administration. […] The blood was anticoagulated with 1% heparin, the plasma was separated by 8000 rpm centrifugation for 4 min and stored at -40° C. for testing. LC-MS/MS Method. Pharmacokinetic parameters after administration in rats were calculated using a non-compartmental model of DAS 2.0 software.

CN(C)C(=O)N[C@H]1CC[C@H](CCN2CCN(c3cccc4ccsc34)CC2)CC1 [Example 4, N′-[trans-4-[2-[7-(benzo[b]thiophene)-7-piperazinyl]ethyl]cyclohexyl]-N,N-dimethylurea]
Plasma Concentrations of Compound of Formula I (5 min after administration, Mean ± SD): 6.65 ± 5.31 ng/mL
Plasma Concentrations of Compound of Formula I (5 min after administration, rat 1♂): 5.28 ng/mL
Plasma Concentrations of Compound of Formula I (5 min after administration, rat 2♂): 3.26 ng/mL
Plasma Concentrations of Compound of Formula I (5 min after administration, rat 3♂): 14.5 ng/mL
Plasma Concentrations of Compound of Formula I (5 min after administration, rat 4♂): 3.54 ng/mL
Plasma Concentrations of Compound of Formula I (0.167 h after administration, Mean ± SD): 13.3 ± 2.09 ng/mL
Plasma Concentrations of Compound of Formula I (0.167 h after administration, rat 1♂): 10.5 ng/mL
Plasma Concentrations of Compound of Formula I (0.167 h after administration, rat 2♂): 13.0 ng/mL
Plasma Concentrations of Compound of Formula I (0.167 h after administration, rat 3♂): 14.8 ng/mL
Plasma Concentrations of Compound of Formula I (0.167 h after administration, rat 4♂): 15.0 ng/mL
Plasma Concentrations of Compound of Formula I (0.333 h after administration, Mean ± SD): 44.0 ± 18.5 ng/mL
Plasma Concentrations of Compound of Formula I (0.333 h after administration, rat 1♂): 69.7 ng/mL
Plasma Concentrations of Compound of Formula I (0.333 h after administration, rat 2♂): 25.9 ng/mL
Plasma Concentrations of Compound of Formula I (0.333 h after administration, rat 3♂): 42.5 ng/mL
Plasma Concentrations of Compound of Formula I (0.333 h after administration, rat 4♂): 37.9 ng/mL
Plasma Concentrations of Compound of Formula I (0.5 h after administration, Mean ± SD): 45.4 ± 19.2 ng/mL
Plasma Concentrations of Compound of Formula I (0.5 h after administration, rat 1♂): 66.7 ng/mL
Plasma Concentrations of Compound of Formula I (0.5 h after administration, rat 2♂): 23.2 ng/mL
Plasma Concentrations of Compound of Formula I (0.5 h after administration, rat 3♂): 54.7 ng/mL
Plasma Concentrations of Compound of Formula I (0.5 h after administration, rat 4♂): 37.0 ng/mL
Plasma Concentrations of Compound of Formula I (1 h after administration, Mean ± SD): 46.8 ± 11.4 ng/mL
Plasma Concentrations of Compound of Formula I (1 h after administration, rat 1♂): 51.1 ng/mL
Plasma Concentrations of Compound of Formula I (1 h after administration, rat 2♂): 34.7 ng/mL
Plasma Concentrations of Compound of Formula I (1 h after administration, rat 3♂): 60.6 ng/mL
Plasma Concentrations of Compound of Formula I (1 h after administration, rat 4♂): 40.8 ng/mL
Plasma Concentrations of Compound of Formula I (2 h after administration, Mean ± SD): 25.3 ± 8.57 ng/mL
Plasma Concentrations of Compound of Formula I (2 h after administration, rat 1♂): 25.9 ng/mL
Plasma Concentrations of Compound of Formula I (2 h after administration, rat 2♂): 20.0 ng/mL
Plasma Concentrations of Compound of Formula I (2 h after administration, rat 3♂): 37.2 ng/mL
Plasma Concentrations of Compound of Formula I (2 h after administration, rat 4♂): 18.2 ng/mL
Plasma Concentrations of Compound of Formula I (4 h after administration, Mean ± SD): 10.4 ± 3.07 ng/mL
Plasma Concentrations of Compound of Formula I (4 h after administration, rat 1♂): 10.4 ng/mL
Plasma Concentrations of Compound of Formula I (4 h after administration, rat 2♂): 10.7 ng/mL
Plasma Concentrations of Compound of Formula I (4 h after administration, rat 3♂): 13.9 ng/mL
Plasma Concentrations of Compound of Formula I (4 h after administration, rat 4♂): 6.41 ng/mL
Plasma Concentrations of Compound of Formula I (6 h after administration, Mean ± SD): 3.63 ± 1.19 ng/mL
Plasma Concentrations of Compound of Formula I (6 h after administration, rat 1♂): 3.65 ng/mL
Plasma Concentrations of Compound of Formula I (6 h after administration, rat 2♂): 3.25 ng/mL
Plasma Concentrations of Compound of Formula I (6 h after administration, rat 3♂): 5.23 ng/mL
Plasma Concentrations of Compound of Formula I (6 h after administration, rat 4♂): 2.40 ng/mL
Plasma Concentrations of Compound of Formula I (9 h after administration, Mean ± SD): 1.48 ± 0.382 ng/mL
Plasma Concentrations of Compound of Formula I (9 h after administration, rat 1♂): 1.45 ng/mL
Plasma Concentrations of Compound of Formula I (9 h after administration, rat 2♂): 1.61 ng/mL
Plasma Concentrations of Compound of Formula I (9 h after administration, rat 3♂): 1.89 ng/mL
Plasma Concentrations of Compound of Formula I (9 h after administration, rat 4♂): 0.978 ng/mL
Plasma Concentrations of Compound of Formula I (12 h after administration, Mean ± SD): 0.758 ± 0.142 ng/mL
Plasma Concentrations of Compound of Formula I (12 h after administration, rat 1♂): 0.728 ng/mL
Plasma Concentrations of Compound of Formula I (12 h after administration, rat 2♂): 0.799 ng/mL
Plasma Concentrations of Compound of Formula I (12 h after administration, rat 3♂): 0.923 ng/mL
Plasma Concentrations of Compound of Formula I (12 h after administration, rat 4♂): 0.582 ng/mL
Plasma Concentrations of Compound of Formula I (24 h after administration, Mean ± SD): 0.197 ± 0.0647 ng/mL
Plasma Concentrations of Compound of Formula I (24 h after administration, rat 1♂): 0.175 ng/mL
Plasma Concentrations of Compound of Formula I (24 h after administration, rat 2♂): 0.274 ng/mL
Plasma Concentrations of Compound of Formula I (24 h after administration, rat 3♂): 0.216 ng/mL
Plasma Concentrations of Compound of Formula I (24 h after administration, rat 4♂): 0.121 ng/mL
